PubChem BioAssay AID1508597 | Cure First | 2020
This is one part, drawn at random, of about 2,100 reagents. 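Calls flag viability under 80% in either arm, not effects specific to rucaparib; the reference for percent is not stated.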 Entries without a mark were called inactive. Not given: the 100% reference.

- Purpose: 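Genes whose silencing sensitises or protects ovarian cancer cells against rucaparib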 (primary screen)
- System: human ovarian carcinoma lines grown from tumours: OCI-P5x (papillary serous) and OCI-C5x (clear cell)
- Knock-down reagent: siRNA pool against human genes, 1.25 pmol siRNA per well
- Duration: 72 h or 96 h, depending on the cell culture
- Treatment: rucaparib 20 µM (about IC30) or vehicle, present until read-out
- Detection: 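ATP luminescence measured at 72 or 96 h according to the culture, then normalised and expressed as percent viability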
- Direction: viability, normalised: higher = more viable cells remaining
- Active means: 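Active when normalised viability falls below 80 percent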
- Calls: active = viability under 80%; inactive = viability 80% or more

ILK, rucaparib or vehicle Rucaparib, cell line OCI-C5x (clear cell), technical replicate 1 → viability, normalised (%) = 99.7
ILK, rucaparib or vehicle Rucaparib, cell line OCI-C5x (clear cell), technical replicate 2 → viability, normalised (%) = 111
ILK, rucaparib or vehicle Rucaparib, cell line OCI-C5x (clear cell), technical replicate 3 → viability, normalised (%) = 109
ILK, rucaparib or vehicle Rucaparib, cell line OCI-P5x (serous), technical replicate 1 → viability, normalised (%) = 186
ILK, rucaparib or vehicle Rucaparib, cell line OCI-P5x (serous), technical replicate 2 → viability, normalised (%) = 184
ILK, rucaparib or vehicle Rucaparib, cell line OCI-P5x (serous), technical replicate 3 → viability, normalised (%) = 132
ILK, rucaparib or vehicle Vehicle, cell line OCI-C5x (clear cell), technical replicate 1 → viability, normalised (%) = 97.4
ILK, rucaparib or vehicle Vehicle, cell line OCI-C5x (clear cell), technical replicate 2 → viability, normalised (%) = 105
ILK, rucaparib or vehicle Vehicle, cell line OCI-C5x (clear cell), technical replicate 3 → viability, normalised (%) = 109
ILK, rucaparib or vehicle Vehicle, cell line OCI-P5x (serous), technical replicate 1 → viability, normalised (%) = 149
ILK, rucaparib or vehicle Vehicle, cell line OCI-P5x (serous), technical replicate 2 → viability, normalised (%) = 148
ILK, rucaparib or vehicle Vehicle, cell line OCI-P5x (serous), technical replicate 3 → viability, normalised (%) = 154
MOV10, rucaparib or vehicle Rucaparib, cell line OCI-C5x (clear cell), technical replicate 1 → viability, normalised (%) = 42.5 (active)
MOV10, rucaparib or vehicle Rucaparib, cell line OCI-C5x (clear cell), technical replicate 2 → viability, normalised (%) = 49.2 (active)
MOV10, rucaparib or vehicle Rucaparib, cell line OCI-C5x (clear cell), technical replicate 3 → viability, normalised (%) = 42 (active)
MOV10, rucaparib or vehicle Rucaparib, cell line OCI-P5x (serous), technical replicate 1 → viability, normalised (%) = 49.4 (active)
MOV10, rucaparib or vehicle Rucaparib, cell line OCI-P5x (serous), technical replicate 2 → viability, normalised (%) = 55.9 (active)
MOV10, rucaparib or vehicle Rucaparib, cell line OCI-P5x (serous), technical replicate 3 → viability, normalised (%) = 43.7 (active)
MOV10, rucaparib or vehicle Vehicle, cell line OCI-C5x (clear cell), technical replicate 1 → viability, normalised (%) = 45.2 (active)
MOV10, rucaparib or vehicle Vehicle, cell line OCI-C5x (clear cell), technical replicate 2 → viability, normalised (%) = 49.3 (active)
MOV10, rucaparib or vehicle Vehicle, cell line OCI-C5x (clear cell), technical replicate 3 → viability, normalised (%) = 56.4 (active)
MOV10, rucaparib or vehicle Vehicle, cell line OCI-P5x (serous), technical replicate 1 → viability, normalised (%) = 64.8 (active)
MOV10, rucaparib or vehicle Vehicle, cell line OCI-P5x (serous), technical replicate 2 → viability, normalised (%) = 62.5 (active)
MOV10, rucaparib or vehicle Vehicle, cell line OCI-P5x (serous), technical replicate 3 → viability, normalised (%) = 106
DNMT3B, rucaparib or vehicle Rucaparib, cell line OCI-C5x (clear cell), technical replicate 1 → viability, normalised (%) = 51.2 (active)
DNMT3B, rucaparib or vehicle Rucaparib, cell line OCI-C5x (clear cell), technical replicate 2 → viability, normalised (%) = 56.3 (active)
DNMT3B, rucaparib or vehicle Rucaparib, cell line OCI-C5x (clear cell), technical replicate 3 → viability, normalised (%) = 42.4 (active)
DNMT3B, rucaparib or vehicle Rucaparib, cell line OCI-P5x (serous), technical replicate 1 → viability, normalised (%) = 62.2 (active)
DNMT3B, rucaparib or vehicle Rucaparib, cell line OCI-P5x (serous), technical replicate 2 → viability, normalised (%) = 53 (active)
DNMT3B, rucaparib or vehicle Rucaparib, cell line OCI-P5x (serous), technical replicate 3 → viability, normalised (%) = 59.2 (active)
DNMT3B, rucaparib or vehicle Vehicle, cell line OCI-C5x (clear cell), technical replicate 1 → viability, normalised (%) = 38.6 (active)
DNMT3B, rucaparib or vehicle Vehicle, cell line OCI-C5x (clear cell), technical replicate 2 → viability, normalised (%) = 53.8 (active)
DNMT3B, rucaparib or vehicle Vehicle, cell line OCI-C5x (clear cell), technical replicate 3 → viability, normalised (%) = 38.8 (active)
DNMT3B, rucaparib or vehicle Vehicle, cell line OCI-P5x (serous), technical replicate 1 → viability, normalised (%) = 51.4 (active)
DNMT3B, rucaparib or vehicle Vehicle, cell line OCI-P5x (serous), technical replicate 2 → viability, normalised (%) = 64 (active)
DNMT3B, rucaparib or vehicle Vehicle, cell line OCI-P5x (serous), technical replicate 3 → viability, normalised (%) = 53.3 (active)
PDE6A, rucaparib or vehicle Rucaparib, cell line OCI-C5x (clear cell), technical replicate 1 → viability, normalised (%) = 66.2 (active)
PDE6A, rucaparib or vehicle Rucaparib, cell line OCI-C5x (clear cell), technical replicate 2 → viability, normalised (%) = 59 (active)
PDE6A, rucaparib or vehicle Rucaparib, cell line OCI-C5x (clear cell), technical replicate 3 → viability, normalised (%) = 42.1 (active)
PDE6A, rucaparib or vehicle Rucaparib, cell line OCI-P5x (serous), technical replicate 1 → viability, normalised (%) = 32.3 (active)
PDE6A, rucaparib or vehicle Rucaparib, cell line OCI-P5x (serous), technical replicate 2 → viability, normalised (%) = 33.1 (active)
PDE6A, rucaparib or vehicle Rucaparib, cell line OCI-P5x (serous), technical replicate 3 → viability, normalised (%) = 44.3 (active)
PDE6A, rucaparib or vehicle Vehicle, cell line OCI-C5x (clear cell), technical replicate 1 → viability, normalised (%) = 56.8 (active)
PDE6A, rucaparib or vehicle Vehicle, cell line OCI-C5x (clear cell), technical replicate 2 → viability, normalised (%) = 64.2 (active)
PDE6A, rucaparib or vehicle Vehicle, cell line OCI-C5x (clear cell), technical replicate 3 → viability, normalised (%) = 36.3 (active)
PDE6A, rucaparib or vehicle Vehicle, cell line OCI-P5x (serous), technical replicate 1 → viability, normalised (%) = 61.7 (active)
PDE6A, rucaparib or vehicle Vehicle, cell line OCI-P5x (serous), technical replicate 2 → viability, normalised (%) = 45.4 (active)
PDE6A, rucaparib or vehicle Vehicle, cell line OCI-P5x (serous), technical replicate 3 → viability, normalised (%) = 48.5 (active)

Reformatted: 6 of the entries above.
| Gene | rucaparib or vehicle | cell line | technical replicate | viability, normalised (%) |
| --- | --- | --- | --- | --- |
| PDE6A | Rucaparib | OCI-C5x (clear cell) | 1 | 66.2 (active) |
| PDE6A | Rucaparib | OCI-C5x (clear cell) | 2 | 59 (active) |
| PDE6A | Rucaparib | OCI-C5x (clear cell) | 3 | 42.1 (active) |
| PDE6A | Rucaparib | OCI-P5x (serous) | 1 | 32.3 (active) |
| PDE6A | Rucaparib | OCI-P5x (serous) | 2 | 33.1 (active) |
| PDE6A | Rucaparib | OCI-P5x (serous) | 3 | 44.3 (active) |
